Test results taken from US20240052042A1 (Novartis, published 2024).
No constants are given. Whether binding was seen depends on the method and setting. Some entries that bind do so weakly or less than the wild type.

By UniProt entry, the sequences of proteins in these tests, tags left out. Residues count along the entry.
UniProt P02769, residues 25-607: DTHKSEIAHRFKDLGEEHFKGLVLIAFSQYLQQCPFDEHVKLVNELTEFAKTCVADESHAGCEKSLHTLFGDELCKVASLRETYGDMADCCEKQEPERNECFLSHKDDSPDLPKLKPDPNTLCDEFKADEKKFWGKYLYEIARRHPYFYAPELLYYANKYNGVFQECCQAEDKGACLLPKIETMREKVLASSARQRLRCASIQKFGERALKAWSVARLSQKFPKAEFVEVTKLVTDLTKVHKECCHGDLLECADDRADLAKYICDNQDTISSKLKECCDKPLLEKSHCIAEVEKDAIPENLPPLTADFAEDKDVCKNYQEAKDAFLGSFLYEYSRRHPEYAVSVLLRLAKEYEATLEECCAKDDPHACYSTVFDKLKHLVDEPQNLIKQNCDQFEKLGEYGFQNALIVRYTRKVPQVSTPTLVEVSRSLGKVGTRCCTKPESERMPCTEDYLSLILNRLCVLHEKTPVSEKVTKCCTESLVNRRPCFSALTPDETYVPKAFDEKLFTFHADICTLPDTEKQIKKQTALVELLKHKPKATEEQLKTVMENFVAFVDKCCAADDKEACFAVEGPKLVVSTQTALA

Columns and labels:
BSA (bovine) = BSA (bovine) (UniProt P02769); assay: ELISA, IgG titrated on coated antigen, fluorescence
rNPR1-ANP complex (rat) = biological target: T1, rNPR1-ANP complex (rat); assay: ELISA, IgG titrated on coated antigen with ANP (250 fold molar excess), fluorescence
T1 sequence: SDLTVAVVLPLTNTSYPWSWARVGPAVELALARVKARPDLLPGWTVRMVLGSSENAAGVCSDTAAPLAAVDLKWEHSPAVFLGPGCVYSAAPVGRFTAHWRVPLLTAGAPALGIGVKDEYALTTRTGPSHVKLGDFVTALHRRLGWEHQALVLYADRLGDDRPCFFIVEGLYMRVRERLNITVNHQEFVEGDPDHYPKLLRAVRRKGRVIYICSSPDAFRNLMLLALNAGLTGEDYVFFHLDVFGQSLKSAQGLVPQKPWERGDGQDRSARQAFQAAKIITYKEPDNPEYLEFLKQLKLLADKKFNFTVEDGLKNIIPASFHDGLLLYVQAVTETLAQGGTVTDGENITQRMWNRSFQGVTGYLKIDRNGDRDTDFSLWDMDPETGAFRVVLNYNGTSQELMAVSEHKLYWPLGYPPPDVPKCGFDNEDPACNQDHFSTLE
T1 sequence (peptide): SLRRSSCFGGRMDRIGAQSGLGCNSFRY

B1: YY01 (IgG format) (antibody, V domains shown)
VH: EVQLVESGGGLVQPGGSLRLSCAASGFTFSSYWISWVRQAPGKGLEWVANIKQSGSETYYVESVKGRFTISRDNAKNSLYLQMNSLRAEDTAVYYCARSLRRRSTEHAGFDVWGQGTLVTVSS
VL: DIQMTQSPSSLSASVGDRVTITCRASQGISNYLAWYQQKPGKVPKLLIYAASTLQSGVPSRFSGSGSGTDFTLTISSLQPEDVATYYCQQADKFPYTFGQGTKVEIKR
notes: also called YY01_LALA
binding (BSA (bovine)): no binding (tested: 1000 nM)
binding (rNPR1-ANP complex (rat)): binds
